Patent publication US7432308B2, “Therapeutic compositions for the treatment of a respiratory tract disease” (Universiteit Gent, priority 2001, dated 2008)

System: sputum DNA
Experiment: DNAse treatment of sputum: change of sputum viscoelasticity (G′, G″) by rheometry
Design: species or system human

B1: rhDNAse I: Recombinant human DNAse I, commercially available under the trade name Pulmozyme, also designated dornase alpha (protein, UniProt P24855 23-282, looked up)
Deoxyribonuclease-1: LKIAAFNIQTFGETKMSNATLVSYIVQILSRYDIALVQEVRDSHLTAVGKLLDNLNQDAPDTYHYVVSEPLGRNSYKERYLFVYRPDQVSAVDSYYYDDGCEPCGNDTFNREPAIVRFFSRFTEVREFAIVPLHAAPGDAVAEIDALYDVYLDVQEKWGLEDVMLMGDFNAGCSYVRPSQWSSIRLWTSPTFQWLIPDSADTTATPTHCAYDRIVVAGMLLRGAVVPDSALPFNFQAAYGLSDQLAQAISDHYPVEVMLK
modifications: dornase alfa
notes: Recombinant human DNAse I, commercially available under the trade name Pulmozyme, also designated dornase alpha
sputa from non-responders not degraded in vitro (seven of the nine sputa): 78%
sputa from clinical responders degraded in vitro (decrease of both G′ and G″ at least 10%) (ten of the thirteen sputa): 77%
